Results deposited as PubChem BioAssay AID1671195 (Yale University, 2021).
Aim: 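Regulators of LDL receptor activity judged by labelled LDL uptake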 (primary screen). System: human Huh7 hepatoma cells. Reagents: siRNA pool against human genes, 18 nM. Timing: about 2 to 2.5 days of knockdown, then 8 h LDL uptake. Treatment: DiI-labelled LDL at 30 µg/ml for 8 h, in lipoprotein-deficient serum medium. Detection: 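Per-cell DiI-LDL intensity by automated imaging; well means scaled to the plate median and given as a robust z-score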. Scale: robust z-score: higher = more LDL uptake after knockdown. Rule for the call: 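Active when two or more replicates show a robust z-score above 2 or below -2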.
The whole screen tested about 22,000 reagents; shown is a random part of them. Of all reagents, about 1,510 (6.9%) are marked active. 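Active includes knockdowns raising or lowering LDL uptake; positive z-scores mean more uptake, negative mean less.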 The numbers tell different reagents against one gene apart. Reagent sequences are not shown.

gene knocked down,pool no.,"robust z-score, replicate 1","robust z-score, replicate 2","robust z-score, replicate 3",Outcome
HSD3B2,1,-1.42,-1.87,-1.3,inactive
GPX8 (glutathione peroxidase 8 (putative)),1,-2,-1.67,-1.94,inactive
ATP2C2 (ATPase secretory pathway Ca2+ transporting 2),1,-0.583,-0.0331,0.365,inactive
GRB10 (growth factor receptor bound protein 10),1,-0.803,-0.237,-0.155,inactive
SMPD2 (sphingomyelin phosphodiesterase 2),1,0.974,-0.473,-0.678,inactive
GIT2 (GIT ArfGAP 2),1,-1.48,-2.14,-1.48,inactive
C16orf82 (chromosome 16 open reading frame 82),1,2.55,0.896,1.1,inactive
CAMK2D (calcium/calmodulin dependent protein kinase II delta),1,-1.55,-1.92,-1.93,inactive
"ZNF833P (zinc finger protein 833, pseudogene)",1,-0.562,-0.34,-0.225,inactive
PLB1 (phospholipase B1),1,0.72,0.983,0.622,inactive
D2HGDH (D-2-hydroxyglutarate dehydrogenase),1,0.829,1.36,0.585,inactive
ARRDC1-AS1 (ARRDC1 antisense RNA 1),1,0.878,0.548,-0.0818,inactive
DCLRE1C (DNA cross-link repair 1C),1,-0.86,-1.16,-1.25,inactive
ZNF18 (zinc finger protein 18),1,0.759,0.455,0.435,inactive
TMEM115 (transmembrane protein 115),1,-0.185,-0.709,-0.876,inactive
ARF6 (ARF GTPase 6),1,-0.105,1.99,1.26,inactive
CD2BP2 (CD2 cytoplasmic tail binding protein 2),1,-0.627,0.603,0.301,inactive
POM121 (POM121 transmembrane nucleoporin),1,-1.18,0.0849,0.253,inactive
CFAP418 (cilia and flagella associated protein 418),1,0.0523,0.0686,0.161,inactive
ARHGAP27 (Rho GTPase activating protein 27),1,-1.8,-2.64,-1.66,inactive
ARHGAP27 (Rho GTPase activating protein 27),2,-1.83,-1.88,-0.712,inactive
PRSS8 (serine protease 8),1,-0.725,-0.486,-0.14,inactive
TNFRSF11B (TNF receptor superfamily member 11b),1,0.356,0.545,-0.0128,inactive
ACAT1 (acetyl-CoA acetyltransferase 1),1,-0.771,-0.289,-0.845,inactive

Continued; the last 2 above are carried over.
gene knocked down,pool no.,"robust z-score, replicate 1","robust z-score, replicate 2","robust z-score, replicate 3",Outcome
TNFRSF11B (TNF receptor superfamily member 11b),1,0.356,0.545,-0.0128,inactive
ACAT1 (acetyl-CoA acetyltransferase 1),1,-0.771,-0.289,-0.845,inactive
RPLP0 (ribosomal protein lateral stalk subunit P0),1,-0.651,-0.319,-0.00165,inactive
PGD (phosphogluconate dehydrogenase),1,-0.318,0.484,-0.201,inactive
LCE2D (late cornified envelope 2D),1,2.98,3.26,2.51,active
TST (thiosulfate sulfurtransferase),1,-1.92,-1.49,-1.07,inactive
LOC442016 (retired record),1,2.57,3.34,3.4,active
ADCY6 (adenylate cyclase 6),1,-1.82,-1.31,-1.82,inactive
"PCYT2 (phosphate cytidylyltransferase 2, ethanolamine)",1,-0.51,-0.848,-1.09,inactive
TUBAL3 (tubulin alpha like 3),1,1.37,0.469,1.41,inactive
MAT2A (methionine adenosyltransferase 2A),1,1.24,-0.705,-0.395,inactive
SLC6A8,1,-0.184,-0.217,0.109,inactive
KIAA1549,1,-1.78,-1.93,-1.8,inactive
LOC440090 (retired record),1,-0.903,-0.535,-0.193,inactive
BPIFC (BPI fold containing family C),1,0.174,0.147,0.0434,inactive
EEF1DP3,1,-0.196,-0.691,-0.327,inactive
IPO7 (importin 7),1,0.259,0.0214,-0.441,inactive
TMEM114 (transmembrane protein 114),1,0.405,0.534,0.624,inactive
SLC39A5,1,0.00326,0.0871,-0.123,inactive
WDR88 (WD repeat domain 88),1,0.516,-0.487,0.253,inactive
ZNF175 (zinc finger protein 175),1,0.654,0.106,0.13,inactive
CTSA (cathepsin A),1,-0.605,-0.39,-0.56,inactive
IRAK3 (interleukin 1 receptor associated kinase 3),1,-1.04,-0.792,-0.416,inactive
TEX30 (testis expressed 30),1,-1.51,-1.29,-1.56,inactive
